The other results are listed elsewhere or left out. Shown are side measurements of this screen, not its main read-out; they come without a call. The list favours compounds with an active or inconclusive main result. Words in brackets tell the shape of the fitted curve; partial curves, single points and poor fits give uncertain potencies.
Assay: qHTS Assay for Lipid Storage Modulators in Drosophila S3 Cells;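 on cell number change: cells counted by Cell Tracker Red CMTPX staining in the red channel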
Settings: BODIPY lipid droplet fluorescence, 18-24 h; for cell number change: measured here: cell count max response, cells fed with added oleic acid
Procedure, shortened: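 Drosophila S3 cells got compounds at several concentrations plus oleic acid (400 uM solution). Laser-scanning cytometry with 488 nm excitation read lipid droplets at 500-530 nm and cells at 575-640 nm. Percent activity was relative to 20 uM Triacsin C.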

[1] = measured here: lipid fluorescence (Fed channel) AC50, cells fed with added oleic acid
[2] = measured here: cell number channel AC50, cells fed with added oleic acid

Structure (SMILES)	cell number change	AC50 [1]	AC50 [2]
Cn1ccnc1C1CCCCN1C(=O)c1cc(COc2ccc(F)cc2F)on1 (stereo not drawn)	17.3%	0.651 µM [rising, full curve, poor fit]	
COc1ccc(OCC(=O)Nc2ccc(S(=O)(=O)Nc3cc(C)nc(C)n3)cc2)cc1	-47.9%		18.4 µM [falling, single point]
CCC(C)NCCCCOc1ccc(Br)cc1 (stereo not drawn)	42.2%	5.17 µM [rising, partial curve, poor fit]	16.4 µM [rising, single point]
COc1ccccc1NC(=O)c1cnc(Nc2ccccc2OC)c2ccccc12	3.94%	5.8 µM [rising, full curve]	
CCCCC1(C)OC(=O)C(=Cc2ccc(SC)cc2)C(=O)O1 (stereo not drawn)	32.2%	0.146 µM [rising, full curve, poor fit]	0.146 µM [rising, full curve]
C/C(=C/c1ccccc1)C(=O)N1CCC(C)CC1	-11.3%		
Cc1ccc(NC(=O)NC2CC(=O)N(c3ccc4c(c3)OCCO4)C2)cc1F (stereo not drawn)			2.59 µM [rising, partial curve, poor fit]
CCOC(=O)c1c(C)[nH]c(C)c1S(=O)(=O)N(C)CC(=O)Nc1cc(C)ccc1OC	2.09%	0.326 µM [falling, partial curve, poor fit]	
CCN1CCN(c2cc3nc(C)n(Cc4ccccc4)c(=O)c3cc2NC(=O)c2ccccc2F)CC1	-51.6%	7.31 µM [falling, partial curve]	6.51 µM [falling, full curve]
Cc1cccc(N(Cc2ccccc2)C(=O)C2CCN(C(=O)c3ccccc3C)CC2)c1	-5.53%	29.1 µM [falling, single point]	
CN1C(=O)c2ccccc2C(C(=O)NCc2ccco2)C1c1c[nH]c2ccccc12 (stereo not drawn)	-39.2%	0.731 µM [rising, single point]	32.6 µM [falling, single point]
Cc1cc(NC(=O)c2ccco2)ncc1NC(=O)Cc1ccccc1	7.85%	0.231 µM [rising, full curve, poor fit]	
CCc1c(C)nc2ncnn2c1N1CCC(C(=O)NCc2ccc3c(c2)OCO3)CC1	9.49%	1.16 µM [rising, full curve, poor fit]	
O=S(=O)(NCc1csc(-c2cccnc2)n1)c1cccs1		0.651 µM [rising, single point]	
COC(CNC(=O)C(=O)Nc1ccc2c(c1)N(S(=O)(=O)c1cccs1)CCC2)OC	49.5%		16.4 µM [rising, single point]
O=C(CSc1nc2ccccc2c(=O)n1CCCN1CCOCC1)N1CCN(c2ccccc2)CC1	39.5%	6.51 µM [falling, partial curve, poor fit]	29.1 µM [rising, single point]
CCC(C)[C@H]1CNCCN1CCc1cccc2ccccc12 (stereo partly drawn)	-14.6%	6.51 µM [rising, single point]	
Cc1cc(OC(=O)c2cc(Cl)ccc2Cl)c([N+](=O)[O-])c(=O)[nH]1	27.8%	0.731 µM [falling, full curve]	
CCOc1ccc(CCNC(=O)CCOc2cc(C)ccc2C)cc1OCC	8.33%		
CCOC(=O)c1c(S(=O)(=O)N(C)Cc2ccco2)c(C)n(C)c1C	7.55%	6.51 µM [falling, single point]	

Structure (SMILES)	cell number change	AC50 [1]	AC50 [2]
Cn1c(CN2CCCC2)nc2cc(NC(=O)COc3ccc(Cl)cc3)ccc21	11.6%	5.17 µM [rising, single point]	
CC1CCCCC1NC(=O)c1c(O)nc2ccccn2c1=O (stereo not drawn)	-33.9%	29.1 µM [falling, single point]	32.6 µM [falling, single point]
COc1cccc(-c2nc(CS(=O)(=O)CC(=O)Nc3ccccc3Br)c(C)o2)c1	11.8%	23.1 µM [falling, single point]	
Cc1cc(NCCN2CCOCC2)n2ncc(-c3ccccc3)c2n1		0.103 µM [falling, full curve, poor fit]	5.17 µM [rising, single point]
Cc1ccc(C(=O)n2nc(-c3cccnc3)nc2N)cc1	-0.806%		0.517 µM [rising, full curve]
Cc1nn(-c2ccc(N3CCOCC3)nn2)c(C)c1CCC(=O)NCc1ccccc1F	-17.1%	0.103 µM [falling, partial curve, poor fit]	
COc1ccc(-c2noc(N3CCCC(C(=O)Nc4ccccc4F)C3)n2)cc1 (stereo not drawn)	28%	0.461 µM [rising, full curve, poor fit]	
O=C(Nc1ccc(Cl)c(-c2nc3ccccc3[nH]2)c1)c1ccc2c(c1)OCO2	-1.61%		6.51 µM [rising, partial curve, poor fit]
CCc1nc(SCC(=O)NNC(=O)C(C)C)c2ccccc2n1		6.51 µM [rising, single point]	6.51 µM [rising, single point]
Cc1cc(C)c(NC(=O)COC(=O)COc2ccc3c(C)cc(=O)oc3c2)c(Cl)c1	-15.4%	2.06 µM [rising, partial curve, poor fit]	
CC(=O)Nc1ccc(S(=O)(=O)N(C)CC(=O)OCC(=O)N(C)C2CCS(=O)(=O)C2)cc1 (stereo not drawn)	-17.9%		
CCn1cc(C(=O)NCc2ccccc2Cl)cn1	15%	32.6 µM [rising, single point]	
N#CCn1nnc(-c2ccc3c(c2)OCO3)n1	-4.26%	29.1 µM [rising, single point]	
O=C(c1ccco1)c1cc2c(ccc3ccccc32)oc1=O	-43.5%	2.59 µM [rising, full curve]	
COC(=O)c1sccc1NC(=O)CSCC(=O)O		6.51 µM [falling, partial curve]	6.51 µM [falling, single point]
COC(=O)C(NS(=O)(=O)c1cccc(S(=O)(=O)NC(C(=O)OC)c2ccccc2)c1)c1ccccc1 (stereo not drawn)	-0.971%	23.1 µM [falling, single point]	
O=C(O)CSCC(=O)NCc1cccc(C(F)(F)F)c1	19.9%		
COc1ccc(OCC(=O)NNC(=O)c2nn(C)c(=O)c3ccccc23)cc1	0.494%		
CC1(C)CC(=O)c2cc(N=C/C(C(=O)c3ccccc3)=C(\O)c3ccccc3)c(=O)oc2C1	-31.8%		29.1 µM [falling, single point]
COC(=O)c1sc(-c2ccccc2)cc1NC(=O)c1cc(OC)cc(OC)c1	14.1%	0.326 µM [rising, full curve, poor fit]	0.58 µM [falling, single point]

Structure (SMILES)	cell number change	AC50 [1]	AC50 [2]
COc1ccc(C(=O)Nc2ccc(NC(=O)C3CC3)nc2)cc1	-12%	29.1 µM [falling, single point]	
CN(CC(=O)Nc1ccc(F)cc1)C(=O)COC(=O)COc1ccc(C#N)cc1	-20.8%	2.31 µM [falling, full curve]	
O=C(c1cc(Cl)ccc1O)N1CCN(S(=O)(=O)c2cccs2)CC1	6.43%		
CCOC(=O)c1c(C)[nH]c(C(=O)NNC(=O)c2ccccc2)c1C	139%		23.1 µM [rising, single point]
COc1ccccc1N(C)S(=O)(=O)c1ccc(Cl)c(C(=O)NCC2(N(C)C)CCCCC2)c1	2.57%	11.6 µM [falling, partial curve]	
Cn1cc(C(=O)N/N=C/c2cc(Br)cs2)c2ccccc21	16.5%	14.6 µM [rising, single point]	
O=C(c1cc(Cl)ccc1Cl)N1CCN(Cc2ccccc2)CC1	21.4%		
Cn1c(SCc2cccc3ccccc23)nnc1-c1ccco1		0.326 µM [falling, single point]	
Cc1cccc(N=C2NN=C(c3ccc4c(c3)OCCO4)CS2)c1	-19.5%	0.517 µM [rising, full curve, poor fit]	
CN1/C(=C/C(=S)NC(=O)C2CCC2)C(C)(C)c2ccccc21	-50.2%	1.03 µM [falling, partial curve]	20.6 µM [falling, partial curve, poor fit]
CCCCN(C(=O)CCC(=O)Nc1cc(C)on1)C(C(=O)NC(C)(C)CC)c1cccc(OC)c1OC (stereo not drawn)	-23.6%	9.2 µM [falling, partial curve]	
C=CCSC1=N/C(=C\c2ccsc2)C(=O)S1	10.4%	3.26 µM [falling, full curve, poor fit]	
COc1ccccc1N1CCN(C2CCN(C(=O)c3cc(OC)c(OC)c(OC)c3)CC2)CC1	1.08%	32.6 µM [rising, single point]	
O=C(COC(=O)c1cncc(Br)c1)NCc1ccccc1	-24.4%	4.11 µM [falling, full curve, poor fit]	
COc1ccc(OC)c(S(=O)(=O)NC(C)(C)C)c1	-3.91%	0.651 µM [falling, full curve, poor fit]	
COc1cccc(N(C(=O)c2snc(C(N)=O)c2N)C(C(=O)NCc2ccccc2)c2ccc(O)cc2)c1 (stereo not drawn)	-6.84%		
O=C(NCCc1cccc(F)c1)[C@@H]1CSC2c3ccccc3C(=O)N21 (stereo partly drawn)	21.2%	0.517 µM [rising, single point]	
O=C(CN1C(=O)C2CC=CCC2C1=O)Nc1ccc(F)cc1F (stereo not drawn)	-14.1%	0.082 µM [falling, full curve, poor fit]	

Source: PubChem BioAssay AID2685 (National Center for Advancing Translational Sciences (NCATS), 2010)
